Results are given in words; binding and its absence hold for the method and conditions named. Some binding calls cover weakened binding; strength is not graded here. Sequences can lack the tags named with a protein.
Tests used:
[1] = molecular target: 6×His-HaloTag[22-297](M2F); assay: fully purified system, 80 nM large fragment, peptide titration, JF646
[2] = molecular target: 6×His-HaloTag[22-297](Q145H+P154R); assay: as above
[3] = molecular target: 6×His-HaloTag[22-297](Q145H+P154R); assay: fully purified system, fold response over reaction without peptide, JF646

Row | binding [1] | binding [2] | binding [3] | Binder
1 | binds | binds | binds | RREIGTGFPFDPHYVEVLG [synthetic HaloTag[3-19] peptide with two additional N-terminal arginine residues]
2 | binds | binds | binds | EIGTGFPFDPHYVEVLG [synthetic HaloTag[3-19] peptide]
